# According to patent US11523610B2, “Regulating plant growth using a diapocarotenoid” (King Abdullah University of Science and Technology, priority 2018, dated 2022):
# Test: LC-MS quantification of anchorene in Arabidopsis tissues
# Protocol: About 30 mg (30-40 mg) of freeze-dried and ground Arabidopsis seedlings tissues were extracted using 1 mL of acetonitrile with anti-oxidant [0.1% butylated hydroxytoluene (BHT)] for 15 min in an ultrasonic bath (Branson® 5510EDTH, 25° C., 15 min), followed by centrifugation for 8 min at 13000 rpm at 4° C. The collected supernatant was dried using a concentrator (Labconco RapidVap® System). The extract was derivatized (SCHEME 3) with 50 μL of derivatization solution containing 5 mg/mL derivatization reagent (N^2,N^2,N^4,N^4-tetraethyl-6-hydrazineyl-1,3,5-triazine-2,4-diamine) (Chemspace) and 1% formic acid in methanol at 37° C. for 15 min. Then the sample solution was diluted to 150 μL with 1% formic acid in methanol and filtered by using 0.22 μm filter before LC-MS analysis.
# The quantitative analysis of derivative anchorene were carried out on HPLC-Q-Trap MS/MS. Chromatographic separation was achieved on an Acquity UPLC CSH C18 column (50×2.1 mm; 1.7 μm; Waters) using a mobile phase consisting of water: acetonitrile (95:5, v:v, A) and pure acetonitrile (B), both containing 0.1% formic acid. A gradient was applied, starting with 10% B and increasing to 40% B over 5 min. Then 15% B was increased
# within 10 min followed by an increase of 45% B over 2 min. And then 100% B was maintained for 10 min. To equilibrate the column before the next run, the mobile phase was adjusted back to 10% B in 1 min and this concentration was maintained for 8 min prior to the next sample injection. A flow rate of 0.15 mL/min and a column temperature of 40° C. were maintained throughout the run. The eluent of the column was introduced to the mass spectrometer using turbo spray ion source in positive mode. The injection volume was 10 μL. The conditions of the mass spectrometer were set as following: curtain gas: 30; ion spray voltage: 5 kV; temperature: 400° C.; ion source gas 1: 30; ion source gas 2: 40; declustering potential, 55; entrance potential: 10; collision energy: 25; collision cell exit potential: 10. […]
smiles,measurement,setting,value
"C\C(C=O)=C/C=C/C=C(\C)C=O [anchorene, 12,12′-diapocarotene-12,12′-dial]",endogenous anchorene content in root tissues,"12-day-old seedlings, root",0.02±0.001 pmol/mg dry weight
same,endogenous anchorene content in shoot tissues,"12-day-old seedlings, shoot",0.08±0.003 pmol/mg dry weight
same,anchorene content shoot versus root,shoot higher than root,about 4 fold
